Test [1] has as its target human 4E-T(1-68) C26AC50A (human) (UniProt Q9NRA8). Put plainly: SEC; reducing: samples incubated with 2 mM TCEP in 50 mM HEPES-KOH pH 7.2 with KCl, Enrich SEC70 column, 20 °C; both purified.
Test [2] shares this target. Kind of test: AUC; sedimentation velocity, non-reducing: 50 mM HEPES-KOH, 100 mM KCl pH 7.2, no TCEP, 20 °C, 50,000 rpm; 50 µM WT, C50A, C26AC50A, 38 µM C26A; dimers are held by intermolecular disulphide bonds; both purified.
Test [3] shares this target. Put plainly: SEC; non-reducing: monomer fractions incubated 24 h at 20 °C in TCEP-free 50 mM HEPES-KOH pH 7.2 with KCl, Enrich SEC70 column, 20 °C; dimers are held by intermolecular disulphide bonds; both purified. (SEC sorts molecules by how far they enter the pores of the column.)
Test [4] shares this target. Put plainly: SDS-PAGE without reducing agent; SDS-PAGE in the absence of reducing agent of the h4E-T(1-68) variants incubated without TCEP; shows covalent (disulphide) dimers; both purified.
For test [5], the target named is human 4E-T(1-68) C26A (human) (UniProt Q9NRA8). Kind of test: SEC; reducing: samples incubated with 2 mM TCEP in 50 mM HEPES-KOH pH 7.2 with KCl, Enrich SEC70 column, 20 °C; both purified.
Test [6] has the same target. Kind of test: AUC; sedimentation velocity, reducing: 50 mM HEPES-KOH, 100 mM KCl pH 7.2, 1 mM TCEP, 20 °C, 50,000 rpm; 50 µM WT and C50A, 38 µM C26A; both purified.
The target in test [7] is human 4E-T(1-68) C50A (human) (UniProt Q9NRA8). Put plainly: SEC; reducing: samples incubated with 2 mM TCEP in 50 mM HEPES-KOH pH 7.2 with KCl, Enrich SEC70 column, 20 °C; both purified.

Changes are numbered by the printed parent chain. In names and notes the source's numbering stands. Results are given in words; binding and its absence hold for the method and conditions named.

B1: human 4E-T(1-68) C26AC50A (domain or fragment, UniProt Q9NRA8 1-68)
chain: MDRRSMGETESGDAFLDLKKPPASKAPHRYTKEELLDIKELPHSKQRPSALSEKYDSDGVWDPEKWHA
For B1, the binding result is reported as “no binding” in test [1], “no binding (tested: 50 µM)” in test [2], “no binding” in test [3] and “no binding” in test [4].

B2: human 4E-T(1-68) C26A (domain or fragment, UniProt Q9NRA8 1-68)
chain: B1 chain with A50C
Take B2: the binding entry in test [5] is “no binding (condition: with 2 mM TCEP)”; in test [6], “no binding (condition: with 1 mM TCEP; 38 µM)”.

B3: human 4E-T(1-68) C50A (domain or fragment, UniProt Q9NRA8 1-68, looked up)
chain: B1 chain with A26C
notes: human 4E-Transporter (4E-T), N-terminal fragment, residues 1-68; Without TCEP the samples are a mixture of monomer and disulphide-linked dimer; also called C50A mutant
With B3, the binding entry in test [7] is recorded as “no binding (condition: with 2 mM TCEP)”.

These data come from publication PMC10618305, “An intramolecular disulphide bond in human 4E-T affects its binding to eIF4E1a protein” (European Biophysics Journal, 2023).
